Source: patent publication US20080213860
Residue numbers refer to the chain shown, from its start. The exact form of at least one protein or probe is not confirmed. The comparison behind a weaker result is the experiment's own reference, which may not be listed here. Where a protein sequence is shown, tags need not be part of it.

Legend:
Assay in all cases: enzyme reaction in vitro
[1] = test system: T1, BsmI R123D (Bacillus stearothermophilus NUB36); conditions: low nicking activity; protein in an extract; only the site is given
T1 sequence: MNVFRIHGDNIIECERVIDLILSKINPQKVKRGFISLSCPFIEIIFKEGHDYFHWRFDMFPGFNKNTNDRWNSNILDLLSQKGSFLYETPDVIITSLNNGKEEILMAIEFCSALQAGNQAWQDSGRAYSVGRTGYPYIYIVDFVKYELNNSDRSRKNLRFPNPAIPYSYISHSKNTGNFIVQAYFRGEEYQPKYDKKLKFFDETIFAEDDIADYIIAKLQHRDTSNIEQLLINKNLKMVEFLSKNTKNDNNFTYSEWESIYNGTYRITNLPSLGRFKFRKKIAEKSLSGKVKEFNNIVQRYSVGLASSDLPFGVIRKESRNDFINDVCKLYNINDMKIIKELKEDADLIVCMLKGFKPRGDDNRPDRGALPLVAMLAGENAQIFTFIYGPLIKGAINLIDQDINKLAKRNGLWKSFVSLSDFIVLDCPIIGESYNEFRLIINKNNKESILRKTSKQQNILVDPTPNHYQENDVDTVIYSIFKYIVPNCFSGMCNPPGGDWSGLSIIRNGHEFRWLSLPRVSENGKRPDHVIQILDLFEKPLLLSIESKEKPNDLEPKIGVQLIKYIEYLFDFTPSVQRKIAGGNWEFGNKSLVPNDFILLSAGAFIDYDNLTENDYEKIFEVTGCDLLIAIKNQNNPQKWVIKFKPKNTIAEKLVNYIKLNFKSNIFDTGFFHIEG

[2] = test system: T2, BsmI R155D (Bacillus stearothermophilus NUB36); conditions: low nicking activity, low ds-DNA cleavage; protein in an extract; only the site is given
T2 sequence: T1 sequence with D123R, R155D

[3] = test system: T3, BsmI R159D (Bacillus stearothermophilus NUB36); conditions: low nicking activity; protein in an extract; only the site is given
T3 sequence: T1 sequence with D123R, R159D

[4] = test system: T4, BsmI R526D (Bacillus stearothermophilus NUB36); conditions: intermediate nicking activity; protein in an extract; only the site is given
T4 sequence: T1 sequence with D123R, R526D

Measured: activity on this sequence

GCATTC [pBR322 supercoiled plasmid (one BsmI site)]
less active: all assays above
